Results are given in words; binding and its absence hold for the method and conditions named. Some binding calls cover weakened binding; strength is not graded here.
Target: T1, endogenous IRF3 (L929 cells) (mouse (endogenous in L929)), P70671
T1 chain: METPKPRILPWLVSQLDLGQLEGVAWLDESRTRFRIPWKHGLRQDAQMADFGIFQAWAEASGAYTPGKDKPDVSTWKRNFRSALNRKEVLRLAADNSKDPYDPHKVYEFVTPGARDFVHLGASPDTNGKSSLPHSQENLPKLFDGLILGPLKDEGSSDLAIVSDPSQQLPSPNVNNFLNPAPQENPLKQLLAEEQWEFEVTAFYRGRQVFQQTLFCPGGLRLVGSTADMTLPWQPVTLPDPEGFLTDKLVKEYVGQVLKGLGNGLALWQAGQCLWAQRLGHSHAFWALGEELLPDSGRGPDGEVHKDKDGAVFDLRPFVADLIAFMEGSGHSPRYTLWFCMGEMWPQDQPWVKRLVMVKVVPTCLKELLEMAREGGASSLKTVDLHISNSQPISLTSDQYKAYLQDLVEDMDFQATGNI
Assay: native gel or EMSA; native PAGE of extracts of L929 cells (control or Rnf185 siRNA) treated with HT-DNA, poly(I:C) or cGAMP, immunoblot for IRF3 dimerization
Conditions: remark: other sources report otherwise

binding: binds
B1: endogenous IRF3 (L929 cells), P70671 1-419 (protein)
chain: METPKPRILPWLVSQLDLGQLEGVAWLDESRTRFRIPWKHGLRQDAQMADFGIFQAWAEASGAYTPGKDKPDVSTWKRNFRSALNRKEVLRLAADNSKDPYDPHKVYEFVTPGARDFVHLGASPDTNGKSSLPHSQENLPKLFDGLILGPLKDEGSSDLAIVSDPSQQLPSPNVNNFLNPAPQENPLKQLLAEEQWEFEVTAFYRGRQVFQQTLFCPGGLRLVGSTADMTLPWQPVTLPDPEGFLTDKLVKEYVGQVLKGLGNGLALWQAGQCLWAQRLGHSHAFWALGEELLPDSGRGPDGEVHKDKDGAVFDLRPFVADLIAFMEGSGHSPRYTLWFCMGEMWPQDQPWVKRLVMVKVVPTCLKELLEMAREGGASSLKTVDLHISNSQPISLTSDQYKAYLQDLVEDMDFQATGNI

From publication PMC5358892
